# Measurements published in PubChem BioAssay AID248 (DTP/NCI, 2004).
# The list is a part of this screen's results and no random one: it gathers tests that were run many times, whatever their T/C, doses with no T/C, and many T/C values between a quarter and a half above the control. Other doses and runs of a compound stand elsewhere. T/C: endpoint of the treated group in % of that of the vehicle group. Some entries give survivors of the animals treated and no T/C: the source holds a T/C of zero for them, seemingly a mark for toxic or unscored doses. Some survivor counts are full or nearly so, which does not show that the dose was tolerated: survival well below the control is almost never listed, so the zero probably covers shortened survival too. Survivors were counted at the toxicity check, usually on the fifth day, unless a day is given; later deaths do not show. Schedule codes are those of the source, read here as Q, the interval in days (D) or hours (H), X, the number of doses. Some entries hold several experiments; the values are given in rising order. Some schedules carry Z or #; the key to these is not given. Where survival is the endpoint, the PubChem record calls one and a half times the control and up active, and a quarter to a half above the control has no call in these data; cut-offs in other NCI protocols can differ. Some T/C values are followed by the survivors on the day toxicity was checked, most often the fifth; where none is given, no animal had died by that day.
# Test system: L1210 leukemia ip in BDF1 mice, survival T/C
# Assay: NCI In Vivo Anticancer Drug Screen. Data for tumor model L1210 Leukemia (intraperitoneal) in B6D2F1 (BDF1) mice
# Settings: T/C endpoint: mean survival time, higher T/C = longer survival
# [1] = dose: 400.0 mg/kg/injection, schedule: Q01DX009 (ip), vehicle: Klucel (hydroxypropylcellulose) (HPC)
# [2] = dose: 400.0 mg/kg/injection, schedule: Q01DX001 (ip), vehicle: saline
# [3] = dose: 100.0 mg/kg/injection, schedule: Q04DX003 (ip), vehicle: Klucel (hydroxypropylcellulose) (HPC)
# [4] = dose: 200.0 mg/kg/injection, schedule: Q04DX003 (ip), vehicle: Klucel (hydroxypropylcellulose) (HPC)
# [5] = dose: 400.0 mg/kg/injection, schedule: Q04DX003 (ip), vehicle: Klucel (hydroxypropylcellulose) (HPC)
# [6] = dose: 300.0 mg/kg/injection, schedule: Q01DX001 (ip), vehicle: saline
# [7] = dose: 400.0 mg/kg/injection, schedule: Q04DX003 (ip), vehicle: saline with Tween-80
smiles,measurement,setting,value
CC(C)(CO)N=Cc1ccccc1O.CC(C)(CO)N=Cc1ccccc1O.[Ni],survivor count,"dose: 300.0 mg/kg/injection, schedule: Q01DX001 (ip), vehicle: other",1 of 6
CC(NC(=O)OCc1ccccc1)C(=O)NCCC(N)=O (stereo unspecified),survivor count,"dose: 400.0 mg/kg/injection, schedule: Q01DX009 (ip), vehicle: saline with Tween-80",6 of 6
O=C(O)C(O)C(O)C(=O)O.[Cu+2] (stereo unspecified),survivor count,"dose: 80.0 mg/kg/injection, schedule: Q01DX001 (ip), vehicle: saline",0 of 6
CCCC/C(=N\N=C(N)N)c1ccc(F)cc1,survivor count,"dose: 60.0 mg/kg/injection, schedule: Q01DX Z (ip), vehicle: methylcellulose (MC)",1 of 6
same,survivor count,"dose: 60.0 mg/kg/injection, schedule: Q01DX Z (oral), vehicle: methylcellulose (MC)",1 of 6
same,survivor count,"dose: 120.0 mg/kg/injection, schedule: Q01DX Z (ip), vehicle: methylcellulose (MC)",0 of 6
same,survivor count,"dose: 120.0 mg/kg/injection, schedule: Q01DX Z (oral), vehicle: methylcellulose (MC)",1 of 6
CC(=O)Oc1cc2c[n+](C)c3c4cc(OC(C)=O)c(OC(C)=O)cc4ccc3c2cc1OC(C)=O,survivor count,"dose: 220.0 mg/kg/injection, schedule: Q01DX009 (ip), vehicle: saline",2 of 6
Oc1ccc2ccccc2c1N=Nc1nccs1,survivor count,"dose: 100.0 mg/kg/injection, schedule: Q01DX009 (ip), vehicle: Klucel (hydroxypropylcellulose) (HPC)",5 of 6
same,survivor count,"dose: 200.0 mg/kg/injection, schedule: Q01DX009 (ip), vehicle: Klucel (hydroxypropylcellulose) (HPC)",1 of 6
same,survivor count,[1],0 of 6
CCN(CC)c1ccc(/C=N/Nc2nnc(N/N=C/c3ccc(N(CC)CC)cc3)c3ccccc23)cc1,survivor count,[2],2 of 4
NC(=S)NN=C1CCCCCCC1,survivor count,"dose: 14.0 mg/kg/injection, schedule: Q01DX Z (ip), vehicle: methylcellulose (MC)",3 of 7
same,survivor count,"dose: 65.0 mg/kg/injection, schedule: Q01DX Z (ip), vehicle: methylcellulose (MC)",0 of 7
same,survivor count,"dose: 108.0 mg/kg/injection, schedule: Q01DX Z (ip), vehicle: methylcellulose (MC)",0 of 7
c1ccc(CC[P+](c2ccccc2)(c2ccccc2)c2ccccc2)cc1,survivor count,"dose: 6.25 mg/kg/injection, schedule: Q01DX009 (ip), vehicle: Klucel (hydroxypropylcellulose) (HPC)",3 of 6
same,survivor count,"dose: 12.5 mg/kg/injection, schedule: Q01DX009 (ip), vehicle: Klucel (hydroxypropylcellulose) (HPC)",1 of 6
same,survivor count,"dose: 25.0 mg/kg/injection, schedule: Q01DX009 (ip), vehicle: Klucel (hydroxypropylcellulose) (HPC)",1 of 6
same,survivor count,"dose: 50.0 mg/kg/injection, schedule: Q04DX003 (ip), vehicle: Klucel (hydroxypropylcellulose) (HPC)",0 of 6
same,survivor count,[3],3 of 6
same,survivor count,[4],0 of 6
same,survivor count,[5],0 of 6
CCC1(O)CC(OC2CC(NC)C(OC3CC(O)C(OC4CC(O)C(O)C(C)O4)C(C)O3)C(C)O2)c2c(cc3c(c2O)C(=O)c2c(O)ccc(O)c2C3=O)C1C(=O)OC (stereo unspecified),T/C,"dose: 51.2 mg/kg/injection, schedule: Q01DX001 (ip), vehicle: saline",129 % of control [5 of 6 alive]
CCN1CCN(Cc2ccccc2)C(CCl)C1 (stereo unspecified),survivor count,"dose: 50.0 mg/kg/injection, schedule: Q01DX009 (ip), vehicle: Klucel (hydroxypropylcellulose) (HPC)",6 of 6
same,survivor count,[3],2 of 6
same,survivor count,[4],0 of 6
same,survivor count,[5],0 of 6
COc1cc2c(c(Oc3ccc(C)cc3)c1)CN(C)CC2,survivor count,"dose: 200.0 mg/kg/injection, schedule: Q04DX003 (ip), vehicle: saline",3 of 6
same,survivor count,"dose: 400.0 mg/kg/injection, schedule: Q04DX003 (ip), vehicle: saline",0 of 6
CS(=O)(=O)c1ccc(Nn2c(N)nn(-c3ccc(S(C)(=O)=O)cc3)c2=N)cc1,survivor count,"dose: 100.0 mg/kg/injection, schedule: Q01DX009 (ip), vehicle: saline",3 of 3
Nc1cccc2c1C(=O)C=CC2=O,survivor count,"dose: 6.25 mg/kg/injection, schedule: Q04DX003 (ip), vehicle: saline",5 of 6
same,survivor count,"dose: 7.0 mg/kg/injection, schedule: Q01DX009 (ip), vehicle: saline",6 of 6
same,survivor count,"dose: 10.0 mg/kg/injection, schedule: Q01DX009 (ip), vehicle: saline",5 of 6
same,survivor count,"dose: 12.5 mg/kg/injection, schedule: Q04DX003 (ip), vehicle: acetone",3 of 6
same,survivor count,"dose: 25.0 mg/kg/injection, schedule: Q04DX003 (ip), vehicle: acetone",4 of 6
same,survivor count,"dose: 50.0 mg/kg/injection, schedule: Q04DX003 (ip), vehicle: acetone",0 of 6
CCS(=O)(=O)/C=C/c1ccco1,survivor count,"dose: 50.0 mg/kg/injection, schedule: Q04DX003 (ip), vehicle: carboxymethylcellulose (CMC)",0 of 6
same,survivor count,"dose: 100.0 mg/kg/injection, schedule: Q04DX003 (ip), vehicle: carboxymethylcellulose (CMC)",0 of 6
same,survivor count,"dose: 200.0 mg/kg/injection, schedule: Q04DX003 (ip), vehicle: carboxymethylcellulose (CMC)",0 of 6
same,survivor count,"dose: 400.0 mg/kg/injection, schedule: Q04DX003 (ip), vehicle: carboxymethylcellulose (CMC)",0 of 6
COc1ccccc1[N+](C)(C)C,survivor count,"dose: 200.0 mg/kg/injection, schedule: Q01DX001 (ip), vehicle: saline",0 of 4
same,survivor count,[2],0 of 4
C/C=C/C(=O)Nc1cc(C(F)(F)F)ccc1Cl,survivor count,"dose: 200.0 mg/kg/injection, schedule: Q01DX009 (ip), vehicle: saline",3 of 3
same,survivor count,"dose: 200.0 mg/kg/injection, schedule: Q04DX003 (ip), vehicle: saline with Tween-80",6 of 6
same,survivor count,"dose: 400.0 mg/kg/injection, schedule: Q01DX001 (ip), vehicle: saline with Tween-80",5 of 6
same,survivor count,"dose: 400.0 mg/kg/injection, schedule: Q01DX009 (ip), vehicle: saline",0 of 3 and 0 of 6
same,survivor count,"dose: 400.0 mg/kg/injection, schedule: Q04DX002 (ip), vehicle: saline",3 of 6
O=[N+]([O-])/C=C/c1ccc(Cl)cc1Cl,survivor count,"dose: 80.0 mg/kg/injection, schedule: Q01DX009 (ip), vehicle: saline with Tween-80",1 of 6
same,survivor count,"dose: 100.0 mg/kg/injection, schedule: Q04DX002 (ip), vehicle: Klucel (hydroxypropylcellulose) (HPC)",3 of 3
same,survivor count,"dose: 160.0 mg/kg/injection, schedule: Q01DX009 (ip), vehicle: saline with Tween-80",3 of 6
same,survivor count,"dose: 160.0 mg/kg/injection, schedule: Q04DX003 (ip), vehicle: saline with Tween-80",5 of 6
Cn1c(=O)c2c(ncn2CN2CCOCC2)n(C)c1=O,survivor count,[6],1 of 6
CCCCCCCCCCCCCCCc1cc(=O)n(C)n1C,survivor count,[7],3 of 6
CCCCCCOP1(=O)C=C(C)CC1 (stereo unspecified),survivor count,[7],2 of 6
CC(N=CN(C)C)c1cccc2ccccc12 (stereo unspecified),survivor count,[7],3 of 6
CN=C(NC)c1ccc(NC(=O)c2ccc(C(=O)Nc3ccc(C(=NC)NC)c(OC)c3)c(Cl)c2)cc1OC,survivor count,"dose: 1.9 mg/kg/injection, schedule: Q01DX Z (ip), vehicle: saline",3 of 6
same,survivor count,"dose: 2.9 mg/kg/injection, schedule: Q01DX Z (ip), vehicle: saline",0 of 6
same,survivor count,"dose: 4.4 mg/kg/injection, schedule: Q01DX Z (ip), vehicle: saline",0 of 6 and 3 of 6
same,survivor count,"dose: 6.6 mg/kg/injection, schedule: Q01DX Z (ip), vehicle: saline",0 of 6
same,survivor count,"dose: 10.0 mg/kg/injection, schedule: Q01DX Z (ip), vehicle: saline",0 of 6
same,survivor count,"dose: 15.0 mg/kg/injection, schedule: Q01DX Z (ip), vehicle: saline",0 of 6
same,survivor count,"dose: 30.0 mg/kg/injection, schedule: Q01DX Z (ip), vehicle: saline",0 of 6
same,survivor count,"dose: 60.0 mg/kg/injection, schedule: Q01DX Z (ip), vehicle: saline",0 of 6
same,survivor count,"dose: 120.0 mg/kg/injection, schedule: Q01DX Z (ip), vehicle: saline",0 of 6
COc1ccc(C=C2C3C=CC2C2C(=O)OC(=O)C32)cc1 (stereo unspecified),survivor count,[1],4 of 6
CCCC[n+]1cccc(C#N)c1,survivor count,[6],1 of 6
